# From PubChem BioAssay AID248 (DTP/NCI, 2004)
# The list shows only some results of the screen, not a fair sample: it is rich in T/C values a quarter to a half above the control, in often repeated tests (any T/C) and in doses without a T/C. Other doses and runs of a compound stand elsewhere. T/C is the treated group as % of the vehicle group. Some entries give survivors of the animals treated and no T/C: the source holds a T/C of zero for them, seemingly a mark for toxic or unscored doses. Some doses without a T/C left all or most animals alive at the check, yet need not have been tolerated: the source hardly ever lists a survival T/C far under the control, and the zero likely stands for such cases as well. Counts of survivors are from the toxicity check (mostly the fifth day) where no day follows; animals may have died later. Schedule codes are those of the source, taken here to give the interval after Q, in days (D) or hours (H), and the number of doses after X. Some schedule codes hold Z or #, which are not explained here. Some structures stand for samples that the source files as different forms (salt, stereo form or complex); doses refer to the form tested. For survival time, this PubChem deposit counts one and a half times the control or more as active, and values a quarter to a half above the control carry no call in these data; other NCI protocols may use other cut-offs.
# System: L1210 leukemia ip in BDF1 mice, survival T/C
# Test: NCI In Vivo Anticancer Drug Screen. Data for tumor model L1210 Leukemia (intraperitoneal) in B6D2F1 (BDF1) mice
# Conditions: T/C endpoint: mean survival time, higher T/C = longer survival
# [1] = dose: 400.0 mg/kg/injection, schedule: Q04DX003 (ip), vehicle: Klucel (hydroxypropylcellulose) (HPC)
# [2] = dose: 50.0 mg/kg/injection, schedule: Q01DX001 (ip), vehicle: saline
# [3] = dose: 100.0 mg/kg/injection, schedule: Q01DX001 (ip), vehicle: saline
# [4] = dose: 200.0 mg/kg/injection, schedule: Q01DX001 (ip), vehicle: saline
# [5] = dose: 400.0 mg/kg/injection, schedule: Q01DX001 (ip), vehicle: saline
compound,measurement,setting,value
NC(N)=NCCCCCCN=C(N)N,survivor count,"dose: 50.0 mg/kg/injection, schedule: Q01DX Z (oral), vehicle: saline",4 of 6
same,survivor count,"dose: 50.0 mg/kg/injection, schedule: Q04DX003 (ip), vehicle: saline with Tween-80",1 of 6
same,survivor count,"dose: 100.0 mg/kg/injection, schedule: Q04DX003 (ip), vehicle: saline with Tween-80",0 of 6
same,survivor count,"dose: 200.0 mg/kg/injection, schedule: Q04DX003 (ip), vehicle: saline with Tween-80",0 of 6
same,survivor count,"dose: 400.0 mg/kg/injection, schedule: Q04DX003 (ip), vehicle: saline with Tween-80",0 of 6
O=c1ccc(=O)n(-c2ccccc2)[nH]1,T/C,[1],128 % of control
CCCCCCCCCCCCCC[n+]1ccc(C#N)cc1,survivor count,"dose: 75.0 mg/kg/injection, schedule: Q01DX001 (ip), vehicle: saline",3 of 6
same,survivor count,"dose: 150.0 mg/kg/injection, schedule: Q01DX001 (ip), vehicle: saline",0 of 6
same,survivor count,"dose: 300.0 mg/kg/injection, schedule: Q01DX001 (ip), vehicle: saline",0 of 6
c1cc[n+](CCSCCSCC[n+]2ccccc2)cc1,survivor count,"dose: 12.5 mg/kg/injection, schedule: Q01DX009 (ip), vehicle: acetone",0 of 6
same,survivor count,"dose: 18.0 mg/kg/injection, schedule: Q04DX003 (ip), vehicle: saline",5 of 6
same,survivor count,"dose: 25.0 mg/kg/injection, schedule: Q01DX001 (ip), vehicle: saline",0 of 6
same,survivor count,"dose: 28.0 mg/kg/injection, schedule: Q04DX003 (ip), vehicle: saline",1 of 6
same,survivor count,"dose: 40.0 mg/kg/injection, schedule: Q04DX003 (ip), vehicle: saline",0 of 6
same,survivor count,[2],0 of 6
same,survivor count,[3],0 of 6
same,survivor count,[4],1 of 6
same,survivor count,[5],1 of 6
CCCCCCCCCCCCCCCCCC[N+]1(C)CCC1C (stereo not given),survivor count,"dose: 3.12 mg/kg/injection, schedule: Q04DX003 (ip), vehicle: saline",6 of 6
O=C(Nc1ccc(C2=NCCN2)cc1)c1cncc(C(=O)Nc2ccc(C3=NCCN3)cc2)c1,T/C,"dose: 4.0 mg/kg/injection, schedule: Q01DX Z (ip), vehicle: saline",127 % of control
same,T/C,"dose: 8.0 mg/kg/injection, schedule: Q01DX Z (ip), vehicle: saline",145 % of control
same,survivor count,"dose: 120.0 mg/kg/injection, schedule: Q01DX Z (ip), vehicle: carboxymethylcellulose (CMC)",6 of 6
Cc1ccc(C(C)C)c(OC(=O)Nc2ccc(Cl)cc2)c1,T/C,[1],126 % of control
O=C(CC(C(=O)O)N1CCOCC1)c1ccccc1 (stereo not given),survivor count,[1],0 of 6
O=C1C=CC(=O)C2=C1C1c3ccccc3C2c2ccccc21,survivor count,"dose: 200.0 mg/kg/injection, schedule: Q04DX002 (ip), vehicle: saline with Tween-80",3 of 3
COC(=O)[C@H]1[C@H]2C[C@@H]3c4[nH]c5ccccc5c4CCN3C[C@H]2C[C@@H](OC(=O)c2cc(OC)c(OC)c(OC)c2)[C@@H]1OC,survivor count,"dose: 3.75 mg/kg/injection, schedule: Q01DX009 (ip), vehicle: Klucel (hydroxypropylcellulose) (HPC)",5 of 6
CCC(SC(CC)C(=O)O)C(=O)O (stereo not given),survivor count,[5],1 of 3
CC(=O)Nc1ccc(/C=N/NC(N)=S)cc1,survivor count,"dose: 400.0 mg/kg/injection, schedule: Q04DX013 (ip), vehicle: carboxymethylcellulose (CMC)",6 of 6
O=C1C=CC(=O)c2cc(Cl)c(Cl)cc21,survivor count,"dose: 12.5 mg/kg/injection, schedule: Q01DX009 (ip), vehicle: saline",4 of 6
same,survivor count,"dose: 25.0 mg/kg/injection, schedule: Q04DX003 (ip), vehicle: saline",1 of 6
same,survivor count,[2],0 of 6
same,survivor count,[3],0 of 6
same,survivor count,[4],0 of 6
same,survivor count,[5],0 of 6
NC(=O)CNC(=O)CNC(=O)CNC(=O)OCc1ccccc1,survivor count,"dose: 100.0 mg/kg/injection, schedule: Q01DX009 (ip), vehicle: saline with Tween-80",5 of 6
same,survivor count,"dose: 200.0 mg/kg/injection, schedule: Q01DX009 (ip), vehicle: saline with Tween-80",1 of 6
same,survivor count,"dose: 400.0 mg/kg/injection, schedule: Q01DX009 (ip), vehicle: saline with Tween-80",0 of 6
N=C(N)c1cccc(NC(=O)Nc2cccc(C(=N)N)c2)c1,survivor count,"dose: 60.0 mg/kg/injection, schedule: Q01DX Z (ip), vehicle: saline",0 of 6
same,survivor count,"dose: 120.0 mg/kg/injection, schedule: Q01DX Z (ip), vehicle: saline",0 of 6
Brc1cc(Br)c2[nH]c(-c3ccccc3)cc2c1,survivor count,"dose: 50.0 mg/kg/injection, schedule: Q01DX001 (ip), vehicle: carboxymethylcellulose (CMC)",4 of 4
